Assay results published in paper PMC12578639.
These are yes or no findings as the source states them, for the method shown. Binding calls can cover weak binding; strength is not graded here. For some assays here: Binding seen in cells or lysates may run through a third protein.

Tests used:
[1] = molecular target: His6-ThsB1 (Sau–Thoeris ThsB1 with an N-terminal hexahistidyl tag) (Staphylococcus aureus 08BA02176); experiment: pull-down; cobalt affinity resin on lysates of cells expressing His6-ThsB1 or ThsB2-His6, the 3× Flag-tagged other sensor, and wild type, V273A or W84K Mhp from the pMhp plasmid; Coomassie SDS–PAGE
[2] = molecular target: His6-ThsB1 (Sau–Thoeris ThsB1 with an N-terminal hexahistidyl tag) (Staphylococcus aureus 08BA02176); experiment: pull-down; cobalt affinity resin on lysates of staphylococci with Mhp (text: overexpressed from pMhp; legend: infected with Φ80α-vir) and either His6-ThsB1 or ThsB2-His6, not both; Coomassie SDS–PAGE
[3] = molecular target: His6-tagged Seq–ThsB2 (Streptococcus equinis CNU77-23 (also printed S. equinus CNU 77-23)); experiment: pull-down; cobalt affinity resin on cytoplasmic extracts of staphylococci expressing His6-tagged Seq–ThsB1 or Seq–ThsB2 with the other Seq–ThsB, with or without overexpression of Mhp(Φ80α); Coomassie SDS–PAGE
[4] = molecular target: Seq–ThsB1-His6 (Streptococcus equinis CNU77-23 (also printed S. equinus CNU 77-23)); experiment: as above
[5] = molecular target: His6-ThsB1 (Sau–Thoeris ThsB1 with an N-terminal hexahistidyl tag) (Staphylococcus aureus 08BA02176); experiment: native gel or EMSA; native PAGE of purified ThsB1, ThsB2 and Mhp mixed together at different molar ratios, with NAD+; complex only at 1:1:1; both purified

Measured: binding

B1: Major head protein (Mhp) of phage Φ80α, gp47 (protein, UniProt A4ZFB3 15-324)
chain: ASNNVKPQVFNPDNVMMHEKKDGTLMNEFTTPILQEVMENSKIMQLGKYEPMEGTEKKFTFWADKPGAYWVGEGQKIETSKATWVNATMRAFKLGVILPVTKEFLNYTYSQFFEEMKPMIAEAFYKKFDEAGILNQGNNPFGKSIAQSIEKTNKVIKGDFTQDNIIDLEALLEDDELEANAFISKTQNRSLLRKIVDPETKERIYDRNSDSLDGLPVVNLKSSNLKRGELITGDFDKLIYGIPQLIEYKIDETAQLSTVKNEDGTPVNLFEQDMVALRATMHVALHIADDKAFAKLVPADKRTDSVPGEV
binds: all assays above
